According to patent US6777445B2, “Fullerene pharmaceutical compositions for preventing or treating disorders” (priority 2000, dated 2004):
At least one compound was matched to its structure with a doubt left.

Tested on: E. coli
Test: Therapeutic effect on E. coli-induced death, treatment after E. coli injection (Test 3)
Type: in vivo, B6 mice
Settings: dexamethasone control treatment i.p.

Compound: C[C@@H]1C[C@H]2[C@@H]3CCC4=CC(=O)C=C[C@]4(C)[C@@]3(F)[C@@H](O)C[C@]2(C)[C@@]1(O)C(=O)CO [dexamethasone]
- effect on experimental E. coli-induced death: only delay or partially inhibit
